# From patent US20180320175
# Chains of the proteins cited; added tags and fusions are not shown.
# UniProt O95931, whole entry: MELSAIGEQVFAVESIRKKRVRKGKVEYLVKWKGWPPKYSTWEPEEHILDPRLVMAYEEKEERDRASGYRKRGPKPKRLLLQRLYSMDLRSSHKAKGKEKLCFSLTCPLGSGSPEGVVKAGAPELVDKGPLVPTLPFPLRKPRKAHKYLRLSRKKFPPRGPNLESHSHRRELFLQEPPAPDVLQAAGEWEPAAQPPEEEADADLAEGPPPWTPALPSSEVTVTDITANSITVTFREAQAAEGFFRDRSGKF
# The exact form of at least one protein or probe is not confirmed. At least one result comes from cells or an extract, where the contact may be indirect.
# Molecular target: CBX7 (Chromobox Homolog 7, PRC1 subunit) (UniProt O95931)
# Assay: binding assay
# Details: denaturing CLIP-seq in HEK293; UV 254 nm; 8 M urea wash; region is peak plus 500 nt envelope; protein in cells
row,Sequence,binding result
1,AGGGAGCAGCCCCAAAUUGUCACCUGCUUCUCUGCCCAGCUUUUCAUUGCUGUGACAGUGAUGGCGAAAGAGGGUAAUAACCAGACACAAACUGCCAAGUUGGGUGGAGAAAGGAGUUUCUUUAGCUGACAGAAUCUCUGAAUUUUAAAUCACUUAGUAAGCGGCUCAAGCCCAGGAGGGAGCAGAGGGAUACGAGCGGAGUCCCCUGCGCGGGACCAUCUGGAAUUGGUUUAGCCCAAGUGGAGCCUGACAGCCAGAACUCUGUGUCCCCCGUCUAACCACAGCUCCUUUUCCAGAGCAUUCCAGUCAGGCUCUCUGGGCUGACUGGGCCAGGGGAGGUUACAGGUACCAGUUCUUUAAGAAGAUCUUUGGGCAUAUACAUUUUUAGCCUGUGUCAUUGCCCCAAAUGGAUUCCUGUUUCAAGUUCACACCUGCAGAUUCUAGGACCUGUGUCCUAGACUUCAGGGAGUCAGCUGUUUCUAGAGUUCCUACCAUGGAGUGGGUCUGGAGGACCUGCCCGGUGGGGGGGCAGAGCCCUGCUCCCUCCGGGUCUUCCUACUCUUCUCUCUGCUCUGACGGGAUUUGUUGAUUCUCUCCAUUUUGGUGUCUUUCUCUUUUAGAUAUUGUAUCAAUCUUUAGAAAAGGCAUAGUCUACUUGUUAUAAAUCGUUAGGAUACUGCCUCCCCCAGGGUCUAAAAUUACAUAUUAGAGGGGAAAAGCUGAACACUGAAGUCAGUUCUCAACAAUUUAGAAGGAAAACCUAGAAAACAUUUGGCAGAAAAUUACAUUUCGAUGUUUUUGAAUGAAUACGAGCAAGCUUUUACAACAGUGCUGAUCUAAAAAUACUUAGCACUUGGCCUGAGAUGCCUGGUGAGCAUUACAGGCAAGGGGAAUCUGGAGGUAGCCGACCUGAGGACAUGGCUUCUGAACCUGUCUUUUGGGAGUGGUAUGGAAGGUGGAGCGUUCACCAGUGACCUGGAAGGCCCAGCACCACCCUCCUUCCCACUCUUCUCAUCUUGACAGAGCCUGCCCCAGCGCUGACGUGUCAGGAAAACACCCAGGGAACUAGGAAGGCACUUCUGCCUGAGGGGCAGCCUGCCUUGCCCACUCCUGCUCUGCUCGCCUCGGAUCAGCUGAGCCUUCUGAGCUGGCCUCUCACU [MECP2 RNA PRC1-binding region 1],binds
2,AGCACUGCUUGCCCCUCCUCUCGUCUGGUCUGGUCUGGUCUGGUCUGGUCUGGUCUGAGAGCUUCUUUGGGGCUCUGACAGGUAUACAGGCUCUCAUCUGCUCUACAGCUCUCUUGUAGUACAUUCCUCUCUGUUCCAUUAGUCAACAUGUUCUUGCCUACUUCCAGCAUCUAGAAAUUUGCUGAGUGUAUCUUAUCCGUUCAGAGGUCCUCUCCUGCUAUUGCCUCUGUUAGAAAUUUCUUCCCUUUCAUAUGUCUGUACUUCGGUUUCUUUGAGGUUUGAAGGGUCAAGUGGCAAUUACAUGUAGGCAGUUGGCCAUCCUCUGGUGAAGGCUUUAAAGCCCAGGAAUAACAAGAUCCAUUAUGUCUAAAACUAGCAAAAACCCUACCUGUCACAUGGUGAACUGAAUUAGAGGUGAUGGGGACAGAAGCCAGAUUGGAGUGAGUGGAAGGUGAGGGAGUGGAGAUUGGGUAUAGACAACUCUCUUUAAGAAGUUUUGUUGUGAUGGUGACCAGAAAAAUAGGAGUGGGGUAGAGGGGGAUGAGGGUGUUUUUCACGUGGGUGAAUAUGAGAGCAUGUUUACAUCCUUCUGGGAAUGGCCCAGGAGAGAGGGGAGCGUGAGAAGGAGGAAAUGGGGACCUGGAGGAGCAGACUCCUUGUGUGGAGGGGGGAAGCGGCAUCUAGAGCUGUUGCAGGAGGUGGGCUUUGAGUAAAUGCUUCCUCUUUGGUAAAGACGGGGAACGGGAACGGUAGAAGUUGCACGGACCCUUUGUUAAAGCUCAGAAGCUGAGCGAGAAUUAGAGCUUAAGUUUAUGGAGUAGUCAGAAUAAAGUACCCCUAACUGUAUUCUUGCACAGUGCAGGAAGCCAGGGGUCUGAAAUCAAGAUGUUGCAGGGCUCCAUUCCCCCCAGAGCCUCUAGCAUGGAUCCUUCCUUGCCUCUUCCAGCUUUUGGUGGCUGCCUGGCAGUCCUAGACUUUCCUUGGCUUGCAGUUGCAUUGCUCCAUUCUCUGCUUGUGUCUUCACAUGGCCUUCUCUGUGUCCCCGUAUUCUUCUCUGGAUGCUUGUCACUGUAUUAGGCCCACCCUAAAUCCAGGAUGAUCUCAUAUCAAGAUCCUUCACUUAAUUACAGAA [MECP2 RNA PRC1-binding region 2],binds
